Changes are numbered by the printed parent chain. Results are given in words; binding and its absence hold for the method and conditions named. Some binding calls cover weakened binding; strength is not graded here.
Columns and labels:
[1] = target: AXL-His (Sino Biological Inc., 6x His labels, molecular weight 47.5 Kda) (UniProt P30530); assay: ELISA, AXL-His coated at 1 µg/ml, OD450 [panel A]
[2] = target: AXL-His (Sino Biological Inc., 6x His labels, molecular weight 47.5 Kda) (UniProt P30530); assay: specificity ELISA, AXL-His coated at 1 ug/ml
[3] = target: AXL-His (Sino Biological Inc., 6x His labels, molecular weight 47.5 Kda) (UniProt P30530); assay: ELISA, AXL-His coated at 1 ug/ml
[4] = target: AXL-His (Sino Biological Inc., 6x His labels, molecular weight 47.5 Kda) (UniProt P30530); assay: ELISA, AXL-His coated at 1 µg/ml, anti-human IgG Fab-HRP, OD450
[5] = target: AXL-His (Sino Biological Inc., 6x His labels, molecular weight 47.5 Kda) (UniProt P30530); assay: ELISA, AXL-His coated at 1 µg/ml, OD450 [panel B]
[6] = target: AXL on the surfaces of human tumour cells (A549, MDA-MB-231, 786-O) (human) (UniProt P30530); assay: flow cytometry on MDA-MB-231 cells, PE anti-human IgG
[7] = target: AXL on the surfaces of human tumour cells (A549, MDA-MB-231, 786-O) (human) (UniProt P30530); assay: flow cytometry on 786-O cells, PE anti-human IgG
[8] = target: AXL on the surfaces of human tumour cells (A549, MDA-MB-231, 786-O) (human) (UniProt P30530); assay: flow cytometry on MDA-MB-231 and 786-O cells

Protein sequences, listed by entry. Tags and fused reporters are not part of them. Lines headed by an entry give the natural chain unless they say otherwise; changes in a name come on top. Chains listed by the source or under a name are the forms on record and can include a tag or linker.
AXL-His (Sino Biological Inc., 6x His labels, molecular weight 47.5 Kda) (P30530, form named): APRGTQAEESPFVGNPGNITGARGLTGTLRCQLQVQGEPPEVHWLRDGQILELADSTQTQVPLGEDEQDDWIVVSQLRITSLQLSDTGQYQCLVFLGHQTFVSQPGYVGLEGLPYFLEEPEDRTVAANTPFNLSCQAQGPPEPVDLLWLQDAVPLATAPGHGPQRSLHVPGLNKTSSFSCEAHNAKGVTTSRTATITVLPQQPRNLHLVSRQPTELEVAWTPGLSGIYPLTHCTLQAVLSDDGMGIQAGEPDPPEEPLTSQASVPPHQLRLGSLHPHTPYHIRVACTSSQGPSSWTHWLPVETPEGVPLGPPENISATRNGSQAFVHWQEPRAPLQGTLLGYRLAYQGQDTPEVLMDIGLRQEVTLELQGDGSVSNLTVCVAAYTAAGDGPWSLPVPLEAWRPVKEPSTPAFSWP

Measured: binding

B1: antibody 6G12M11 (antibody, human IgG1, kappa, V domains shown)
VH: QVQLVQSGPGLVKPSQSLSLTCAVTGFSISSGYYWNWIRQFPGQKLEWMGYRSYDGSNNYNPSLKNRISITRDTSKNQFFLKLNSVTSEDTATYYCARGWLLHYTMDYWGQGTTVTVSS
VL: EIVMTQSPSSVSVTLGQSASISCRSSRSLLHSNGFTYLYWYLQKPGQSPQLLIYQMSNLASGVPDRFSGSGSGTDFTLKISRVEAEDVGVYYCGQNLELPLTFGGGTKLEIKR
binds: [1] | [2] | [3] | [4]

B2: antibody 6G12M21 (antibody, human IgG1, kappa, V domains shown)
VH: B1 VH with A23S
VL: B1 VL with E1D
binds: [5] | [1] | [2] | [3] | [4]

B3: antibody 6G12M31 (antibody, V domains shown)
VH: B1 VH with A23S, N61D
VL: DIVMTQSPSSVSVTLGQSASISCRSSRSLLHSNGFTYLYWYLQKPGQSPQLLIYQMSNLASGVPDRFSGSGSGTDFTLKISRVEAEDVGVYYCGQNLELPLTFGGGTKLEIK
binds: [5] | [6] | [7] | [2] | [8] | [4]

B4: antibody 6G12M41 (antibody, V domains shown)
VH: B1 VH with A23S, N61G
VL: B3 VL
binds: [5] | [2] | [4]
